Experiment: Discoloration of powder coatings based on a carboxy-functional polyester, cured in electric and gas ovens (yellowness index)
Settings: 0.60% stabilizer rel. to components 1 to 5, low YI = little discoloration
Protocol: To prepare the powder coating composition based on a carboxy-functional polyester, components 1 to 6 (formulation without additives) or components 1 to 7 (formulation containing the stabilizers) are employed in the sequence indicated (cf. Table 3).
The components weighed out in this way are mixed using a planetary stirrer. The mixture is then extruded on a prism extruder at 300 revolutions/minute and at 100° C. and is rolled out. The powder coating composition is coarsely comminuted using a bench cutter and is ground in a Retsch ZM-1 ultracentrifugal mill with a 0.75 mm annular-perforation screen at 15,000 revolutions/minute. Finally, the powder is passed through a 30 μm screen on a centrifugal screening machine.
The finished powder coating composition is sprayed electrostatically to a coat thickness of 70 lam onto aluminium panels using an ESB-Wagner corona cup gun at 60 kV. Some of the coated panels are cured at 180° C. for 90 minutes in an electric oven. The remaining coated panels are cured at 180° C. for 45 minutes in a gas oven with an NO2 content of 20 ppm. The yellowness index (YI) of the samples is determined in accordance with ASTM D 1925-70. Low YI values denote little discoloration, high YI values denote severe discoloration of the samples.

For `CC(CO)(COC(C)(C)C)NC(C)(C)C(=O)[O-].[Na+]` (centres unmarked) [Compound 201, sodium salt of 2-(2-tert-butoxy-1-hydroxymethyl-1-methyl-ethylamino)-2-methyl-propionic acid], the “Yellowness index after 90 minutes (ASTM D 1925-70)” value (curing 45 minutes in a gas oven at 180° C., NO2 content 20 ppm) was 3.4 and the “Yellowness index after 90 minutes (ASTM D 1925-70)” value (curing 90 minutes in an electric oven at 180° C.) was 2.8.
